According to publication PMC12291482:
These are yes or no findings as the source states them, for the method shown. Binding seen in cells or lysates may run through a third protein. Some results given as binding are weak or reduced against the parent protein; the word gives no strength.

Amino acid sequences for entries named in this document (tags omitted). A change or cut given only in a name is not applied to a line headed by its entry.
UniProt P05556: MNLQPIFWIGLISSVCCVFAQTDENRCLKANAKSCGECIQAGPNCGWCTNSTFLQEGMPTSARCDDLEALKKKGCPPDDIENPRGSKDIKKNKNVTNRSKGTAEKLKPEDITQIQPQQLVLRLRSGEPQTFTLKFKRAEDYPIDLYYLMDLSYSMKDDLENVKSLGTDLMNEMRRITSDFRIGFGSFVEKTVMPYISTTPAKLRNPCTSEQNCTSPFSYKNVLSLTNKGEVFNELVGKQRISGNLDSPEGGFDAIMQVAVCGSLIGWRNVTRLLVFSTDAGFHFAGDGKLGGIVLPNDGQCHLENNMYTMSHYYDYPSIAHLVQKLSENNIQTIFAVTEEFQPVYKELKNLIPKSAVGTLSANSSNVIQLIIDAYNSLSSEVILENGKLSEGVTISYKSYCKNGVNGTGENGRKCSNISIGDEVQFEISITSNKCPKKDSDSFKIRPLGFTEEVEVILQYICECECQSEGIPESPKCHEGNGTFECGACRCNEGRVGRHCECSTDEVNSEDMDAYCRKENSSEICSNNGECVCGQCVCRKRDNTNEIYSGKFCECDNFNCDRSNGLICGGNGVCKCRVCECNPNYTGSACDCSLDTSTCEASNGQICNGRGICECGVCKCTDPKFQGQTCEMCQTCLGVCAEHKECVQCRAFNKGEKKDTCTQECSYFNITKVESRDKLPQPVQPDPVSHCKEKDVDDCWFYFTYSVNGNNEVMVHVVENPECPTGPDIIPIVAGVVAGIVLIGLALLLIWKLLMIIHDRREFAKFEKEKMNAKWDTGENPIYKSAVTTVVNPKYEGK

Molecular target: T1, Melanoma cell adhesion molecule (MCAM) (UniProt P43121)
T1 sequence: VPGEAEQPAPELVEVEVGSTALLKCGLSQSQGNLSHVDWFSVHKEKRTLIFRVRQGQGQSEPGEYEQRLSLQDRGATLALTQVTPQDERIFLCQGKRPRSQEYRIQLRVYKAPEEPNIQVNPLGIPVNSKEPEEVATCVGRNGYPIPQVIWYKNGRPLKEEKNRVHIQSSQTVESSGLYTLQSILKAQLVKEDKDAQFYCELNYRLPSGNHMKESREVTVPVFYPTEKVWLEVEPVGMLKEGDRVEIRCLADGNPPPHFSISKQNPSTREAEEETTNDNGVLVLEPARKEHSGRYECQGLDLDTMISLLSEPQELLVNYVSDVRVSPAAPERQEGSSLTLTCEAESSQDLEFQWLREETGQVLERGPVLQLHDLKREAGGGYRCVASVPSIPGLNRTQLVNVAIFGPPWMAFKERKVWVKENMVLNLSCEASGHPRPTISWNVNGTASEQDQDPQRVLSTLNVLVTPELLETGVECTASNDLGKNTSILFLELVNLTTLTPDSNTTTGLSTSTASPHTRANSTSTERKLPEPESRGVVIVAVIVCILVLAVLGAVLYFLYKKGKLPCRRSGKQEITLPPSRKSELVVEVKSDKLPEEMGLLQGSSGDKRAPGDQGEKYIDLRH
Test: co-IP; HCC827 cells; magnetic beads conjugated with FLAG and IgG, 4 °C overnight; bound proteins analysed by SDS-PAGE and Western blotting

binding: binds
Substance: Integrin β1 (from UniProt P05556 21-798)
